From article PMC5432325
Results are given in words; binding and its absence hold for the method and conditions named. Binding seen in cells or lysates may run through a third protein. Some binding calls cover weakened binding; strength is not graded here.

Tests used:
[1] = biological target: FLAG tagged human RET51 (long RET isoform) (human) (UniProt P07949); assay: co-IP; lysates of HEK-293 cells transfected with p-RET51 or p-RET9, 72 hours after transfection, with EGF stimulation; IP with mouse monoclonal anti-FLAG antibody overnight at 4°C, blot with anti-EGFR antibody
[2] = biological target: FLAG tagged human RET51 (long RET isoform) (human) (UniProt P07949); assay: co-IP; as a5, HEK-293 cells without EGF stimulation; IP with anti-FLAG antibody, blot with anti-EGFR antibody

Substance: epidermal growth factor receptor (EGFR) (from UniProt P00533 25-1210)
- binding [1]: binds
- binding [2]: no binding (condition: cells without EGF stimulation)
